No constants are given. Whether binding was seen depends on the method and setting. Some results given as binding are weak or reduced against the parent protein; the word gives no strength.
Columns and labels:
[1] = biological target: T1, human LGR7 (human, UniProt Q9HBX9 1-757); assay: direct radioligand binding, 100 pM, COS-7 cells transfected with human LGR7
T1 sequence (looked up): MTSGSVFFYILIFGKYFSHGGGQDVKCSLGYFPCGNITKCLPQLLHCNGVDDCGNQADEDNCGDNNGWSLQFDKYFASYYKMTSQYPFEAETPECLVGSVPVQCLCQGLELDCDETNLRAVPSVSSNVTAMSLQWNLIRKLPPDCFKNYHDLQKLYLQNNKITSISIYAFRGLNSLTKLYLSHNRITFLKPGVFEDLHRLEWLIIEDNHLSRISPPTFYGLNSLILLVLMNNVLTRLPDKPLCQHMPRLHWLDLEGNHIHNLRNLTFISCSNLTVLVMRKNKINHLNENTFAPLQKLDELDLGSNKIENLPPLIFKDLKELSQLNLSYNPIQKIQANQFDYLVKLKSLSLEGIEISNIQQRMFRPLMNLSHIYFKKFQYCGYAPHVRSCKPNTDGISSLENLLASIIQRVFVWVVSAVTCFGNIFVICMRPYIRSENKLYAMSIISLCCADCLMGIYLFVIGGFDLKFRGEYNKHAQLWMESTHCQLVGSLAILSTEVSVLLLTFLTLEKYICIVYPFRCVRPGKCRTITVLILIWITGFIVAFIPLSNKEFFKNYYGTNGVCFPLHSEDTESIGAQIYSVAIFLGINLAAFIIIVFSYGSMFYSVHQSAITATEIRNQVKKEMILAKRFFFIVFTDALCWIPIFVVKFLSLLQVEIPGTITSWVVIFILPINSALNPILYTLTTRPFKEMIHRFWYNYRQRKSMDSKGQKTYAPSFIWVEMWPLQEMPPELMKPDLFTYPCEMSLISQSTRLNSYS

[2] = biological target: T2, rat GPCR135 (rat); assay: displacement of 7 pM [125I]-R3/I5, rat brain sections, autoradiography
T2 sequence: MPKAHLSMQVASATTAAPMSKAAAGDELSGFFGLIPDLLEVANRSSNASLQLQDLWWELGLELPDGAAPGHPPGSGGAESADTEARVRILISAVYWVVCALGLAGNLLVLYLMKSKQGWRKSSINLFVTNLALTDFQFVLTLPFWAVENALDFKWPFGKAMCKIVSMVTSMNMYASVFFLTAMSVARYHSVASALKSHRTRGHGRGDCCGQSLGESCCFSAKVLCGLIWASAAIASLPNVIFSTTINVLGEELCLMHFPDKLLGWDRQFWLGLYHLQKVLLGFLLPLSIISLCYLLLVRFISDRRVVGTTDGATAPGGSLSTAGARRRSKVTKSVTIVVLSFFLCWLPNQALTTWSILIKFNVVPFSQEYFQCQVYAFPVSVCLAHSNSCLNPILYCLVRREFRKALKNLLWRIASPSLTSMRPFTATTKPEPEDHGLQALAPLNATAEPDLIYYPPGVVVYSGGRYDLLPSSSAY

[3] = biological target: T1, human LGR7; assay: direct radioligand binding, monolayer cells expressing recombinant LGR7

Measured: binding

B1: human relaxin-3 (ligand)
chain: RAAPYGVRLCGREFIRAVIFTCGGSRWDVLAGLSSSCCKWGCSKSEISSLC
binds: [1] | [2] | [3]

Reference: patent US20080051336A1 (Janssen / Centocor, published 2008)
